Data taken from patent US11396533 (dated 2022).

Assay: general procedure: Fmoc solid-phase peptide synthesis; CTC resin; DIC/OxymaPure
Conditions: whole synthesis; for crude HPLC purity / crude yield: scale of the general procedure 0.25 g of Wang resin (0.75 mmol/g)

| Substance | crude mass [mg] | crude HPLC purity [%] | crude yield [%] |
| --- | --- | --- | --- |
| Fmoc-Asp(OtBu)^9-Val-Ser(tBu)-Ser(tBu)-Tyr(tBu)-Leu-Glu(OtBu)-Gly^16-OH | 330 | 91 | 90 |
| Boc-His(Trt)^1-Ala-Glu(OtBu)-Gly-Thr(tBu)-Phe-Thr(tBu)-Ser(ψ^Me,Mepro)^8-OH | 270 | 87 | 80 |
| Boc-His(Trt)^1-Aib-Glu(OtBu)-Gly-Thr(tBu)-Phe-Thr(tBu)-Ser(ψ^Me,Mepro)^8-OH | 960 |  | 77 |
